In PMC3502335:

Target: T1, Stat5bCA (constitutively active) N642H (rat) (UniProt P52632)
T1 sequence (looked up, limits assumed): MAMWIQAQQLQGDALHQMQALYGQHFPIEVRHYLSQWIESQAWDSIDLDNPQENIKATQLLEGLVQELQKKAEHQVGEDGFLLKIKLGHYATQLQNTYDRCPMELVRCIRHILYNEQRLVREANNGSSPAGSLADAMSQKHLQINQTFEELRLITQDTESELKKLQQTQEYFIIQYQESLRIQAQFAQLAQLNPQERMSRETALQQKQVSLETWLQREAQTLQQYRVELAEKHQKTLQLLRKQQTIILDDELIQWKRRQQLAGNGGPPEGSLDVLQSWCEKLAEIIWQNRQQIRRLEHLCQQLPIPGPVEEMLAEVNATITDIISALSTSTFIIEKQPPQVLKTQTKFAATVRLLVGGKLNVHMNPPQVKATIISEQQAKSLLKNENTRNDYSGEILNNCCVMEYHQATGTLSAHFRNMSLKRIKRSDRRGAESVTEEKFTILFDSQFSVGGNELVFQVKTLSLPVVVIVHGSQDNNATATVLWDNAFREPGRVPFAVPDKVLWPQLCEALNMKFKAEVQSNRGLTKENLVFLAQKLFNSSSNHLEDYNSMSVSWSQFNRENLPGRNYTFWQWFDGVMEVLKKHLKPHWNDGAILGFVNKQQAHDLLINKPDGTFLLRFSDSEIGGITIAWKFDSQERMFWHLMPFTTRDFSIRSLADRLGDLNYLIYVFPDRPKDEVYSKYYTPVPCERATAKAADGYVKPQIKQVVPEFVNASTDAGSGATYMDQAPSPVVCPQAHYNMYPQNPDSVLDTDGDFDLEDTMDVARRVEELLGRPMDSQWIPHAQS
Assay: EMSA
Settings: low-affinity parent site; Cos-7 nuclear extract (1 ug for Kd, 2 ug for competition), 60 min at 4 C; 5% native PAGE in 1x TBE pH 8.3 at 20 C; probe 0.1-15 nM; binding buffer not given (ref 31); protein in a lysate after overexpression; protein details: Flag; label: 5'-Cy5.5 as probe, unlabeled as competitor

Question: Does “TCTGCTTCTTAGAATGAAG (double strand) [R35]” bind?
Answer: binds

The exact form of at least one protein or probe is not confirmed. Results from cells or extracts need not show a direct contact. At least one verdict rests on a figure or table, not on a statement of the authors. Protein sequences can lack the tags named with them.
